{"source": "PubChem BioAssay AID504834", "about": "(National Center for Advancing Translational Sciences (NCATS), 2011)", "note": "Screen size: about 320,000 compounds; about 22,000 (6.9%) were called active. The shares of active, inactive and inconclusive entries below differ from those in the screen. The call rests on the fitted dose curve; in most records, active means well fitted inhibition curve with a large enough effect; inconclusive means small, poorly fitted or top-dose-only effect, or another doubt; inactive means no such curve, though single readings can be large or run the other way. A potency beside an inconclusive call is a rough fit, not a confirmed value. On the % scale 0 is the no-effect control and ±100 the full control effect; potency means the concentration at half of the fitted maximal effect."}
{"assay": "Primary qHTS for delayed death inhibitors of the malarial parasite plastid, 96 hour incubation", "conditions": "P. falciparum luciferase reporter growth; series mostly up to 28.7 µM; activity change, negative = inhibition: at the top concentration", "outline": "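Two-generation exposure (96 h) targets delayed-death phenotype. Reporter parasites carrying integrated firefly luciferase, in red cells at 2% hematocrit and 0.05% parasitemia final, kept at 37 C, 5% CO2; luminescence loss indicates inhibition.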"}
{"smiles": "CC(=O)c1ccc(NC(=O)CSc2ccc3nnc(-c4cccnc4)n3n2)cc1", "activity change, negative = inhibition": "inactive: -3.86%"}
{"smiles": "COCCNC(=O)c1nn(-c2cc(OC)cc(OC)c2)c(=O)c2ccccc12", "Potency": "inconclusive: 13.1 µM [inhibitor, single point]"}
{"smiles": "CC(C)Nc1nnc(SCC(=O)Nc2sccc2C#N)s1", "Potency": "inconclusive: 13.1 µM [inhibitor, single point]"}
{"smiles": "COCCNc1c([N+](=O)[O-])c(=O)n(-c2ccccc2)c2ccccc12", "Potency": "inconclusive: 11.7 µM [inhibitor, single point]"}
{"smiles": "Cc1ccc(CCNC(=O)c2cccc(NC3=NC4CS(=O)(=O)CC4S3)c2)cc1", "note": "(stereo unspecified)", "activity change, negative = inhibition": "inactive: 30.8%"}
{"smiles": "Cc1nn(-c2ccc(F)cc2)c2sc(C(=O)N3CCCCCC3)cc12", "activity change, negative = inhibition": "inactive: 37.8%"}
{"smiles": "CCCCc1ccc(NC(=S)NCCO)cc1", "Potency": "inconclusive: 11.7 µM [inhibitor, single point]"}
{"smiles": "COc1cccc(/C(C)=N/NS(=O)(=O)c2ccc(Cl)cc2)c1", "Potency": "inconclusive: 13.1 µM [inhibitor, single point]"}
{"smiles": "Cc1cc(C=C2C(=O)N(C)C(=S)N(C)C2=O)c(C)n1C1CCCCC1", "Potency": "inconclusive: 10.4 µM [inhibitor, single point]"}
{"smiles": "Cc1cc(Cl)c2oc(C(=O)NC(C)c3ccncn3)c(C)c2c1", "note": "(stereo unspecified)", "Potency": "inconclusive: 10.4 µM [inhibitor, partial curve, poor fit]"}
{"smiles": "COc1ccc(N2C(=O)C(CC(N)=O)N(NC(=O)CCc3ccccc3)C2=O)cc1", "note": "(stereo unspecified)", "Potency": "inconclusive: 11.7 µM [inhibitor, single point]"}
{"smiles": "Cc1ccc(NC2=C/C(=N/S(=O)(=O)c3cccs3)c3ccccc3C2=O)cc1C", "activity change, negative = inhibition": "inactive: 10.7%"}
{"smiles": "C=CCn1c2ccccc2c2n[nH]c(=S)nc21", "Potency": "inconclusive: 18.5 µM [inhibitor, single point]"}
{"smiles": "COC(=O)c1cc(NC(=O)CC2SC(=Nc3ccccc3)N(CCc3c[nH]c4ccccc34)C2=O)cc(C(=O)OC)c1", "note": "(stereo unspecified)", "Potency": "active: 1.65 µM"}
{"smiles": "COc1cccc(/C=N/Nc2nc3ccccc3n3cnnc23)c1", "Potency": "inconclusive: 2.08 µM [inhibitor, full curve]"}
{"smiles": "Cc1nc(SCC(=O)OCc2ccccc2)c2c(=O)n(C)c(=O)n(C)c2n1", "Potency": "inconclusive: 9.28 µM [inhibitor, single point]"}
{"smiles": "COc1ccc(S(=O)(=O)N2CCN(CC(=O)NC3CC3)CC2)cc1", "Potency": "inconclusive: 18.5 µM [inhibitor, partial curve, poor fit]"}
{"smiles": "Cc1c(C(=O)O)cnc2c([N+](=O)[O-])cnn12", "Potency": "inconclusive: 0.001 µM [inhibitor]"}
{"smiles": "Cc1ccc(C)c(CNc2ccc(S(=O)(=O)N3CCCCC3)cc2)c1", "Potency": "inconclusive: 18.5 µM [inhibitor, single point]"}
{"smiles": "Cc1ccc(OP(N)(=O)Oc2ccc(C)cc2)cc1", "Potency": "active: 5.86 µM"}
{"smiles": "C[C@H](NC(=O)c1nc[nH]c1C(=O)N[C@@H](C)c1ccccc1)c1ccccc1", "Potency": "inconclusive: 18.5 µM [inhibitor, single point]"}
{"smiles": "COCCSc1ccccc1C(=O)Nc1cc(C)ccn1", "activity change, negative = inhibition": "inactive: 79.6%"}
{"smiles": "CC(NC(=O)c1ccccc1NC(=O)CN1CCc2ccccc2C1)c1ccccc1", "note": "(stereo unspecified)", "Potency": "active: 13.1 µM"}
{"smiles": "COc1ccccc1NC(=O)c1ccc(-n2ccnc2)c([N+](=O)[O-])c1", "Potency": "inconclusive: 5.22 µM [inhibitor, partial curve, poor fit]"}
{"smiles": "CN(C)C(=O)CN1C(=O)C2CCCCN2C(=O)c2ccccc21", "note": "(stereo unspecified)", "Potency": "inconclusive: 2.94 µM [inhibitor, partial curve]"}
{"smiles": "COc1ccc2cc3cc(C(=O)NCCCN4CCc5ccccc5C4)sc3nc2c1", "Potency": "inconclusive: 13.1 µM [inhibitor, partial curve, poor fit]"}
{"smiles": "CC1(C)CC2(CCO1)OC(=O)CC2C(=O)Nc1cccc2ccccc12", "note": "(stereo unspecified)", "activity change, negative = inhibition": "inactive: 201%"}
{"smiles": "Cc1cc(NC(=O)COC(=O)c2ccc([N+](=O)[O-])cc2Cl)no1", "Potency": "inconclusive: 10.4 µM [inhibitor, single point]"}
{"smiles": "O=C(CCn1nnnc1CN1CCOCC1)N1CCC(c2ccccc2Cl)C1", "note": "(stereo unspecified)", "Potency": "inconclusive: 8.28 µM [inhibitor, partial curve]"}
{"smiles": "COc1ccc(S(=O)(=O)NCc2ccccc2)cc1Br", "Potency": "inconclusive: 14.7 µM [inhibitor, single point]"}
{"smiles": "COc1ccc(OC)c(-c2cn(S(=O)(=O)c3ccccc3)nc2N)c1", "Potency": "active: 14.7 µM"}
{"smiles": "O=C(O)c1cn(Cc2ccccn2)c(=O)c2ccccc12", "activity change, negative = inhibition": "inactive: 81.5%"}
{"smiles": "CCOCCCNC(=O)c1cc(-c2cccnc2)nc2ccc(S(=O)(=O)N3CCC(C)CC3)cc12", "Potency": "inconclusive: 11.7 µM [inhibitor, partial curve]"}
{"smiles": "Cc1cccc(-n2ccnc2SCC(=O)Nc2ccc3c(c2)OCCO3)c1", "Potency": "inconclusive: 0.928 µM [inhibitor, full curve, poor fit]"}
{"smiles": "O=C(CCC(=O)N1CCOc2ccc(Cl)cc21)NCc1ccccc1", "Potency": "active: 11.7 µM"}
{"smiles": "CCC(=O)NCCc1nc2cc(NC(=O)c3ccco3)ccc2n1C", "Potency": "inconclusive: 7.38 µM [inhibitor, partial curve]"}
{"smiles": "Cc1onc(-c2ccccc2)c1C(=O)OCCOc1cccc(Cl)c1", "Potency": "inconclusive: 13.1 µM [inhibitor, partial curve, poor fit]"}
{"smiles": "CC[C@@H](C)[C@@H](C(=O)N1CCN(C(=O)OC(C)(C)C)CC1)n1cc(CCCN=C(NC(=O)OC(C)(C)C)NC(=O)OC(C)(C)C)nn1", "Potency": "inconclusive: 1.47 µM [inhibitor, full curve]"}
{"smiles": "O=[N+]([O-])c1ccc(/C=N/NC(=S)Nc2ccc(Cl)cc2Cl)s1", "Potency": "active: 3.29 µM"}
{"smiles": "CCOC(=O)c1c(N)sc(-c2ccccc2)c1C", "activity change, negative = inhibition": "inactive: 12.2%"}
{"smiles": "CSc1ccc(C(=O)C2CCCN(Cc3cccnc3)C2)cc1", "note": "(stereo unspecified)", "Potency": "inconclusive: 4.15 µM [inhibitor, full curve, poor fit]"}
{"smiles": "O=C(Nc1nccs1)c1cccnc1", "Potency": "inconclusive: 7.38 µM [inhibitor, partial curve, poor fit]"}
{"smiles": "O=C(NCN1CCOCC1)c1cnccn1", "Potency": "inactive"}
{"smiles": "C[C@@H](CN1C2=NC[C@H](C)N2C[C@H]1Cc1ccc(O)cc1)NC(=O)CCC1CCCCC1", "Potency": "inconclusive: 13.1 µM [inhibitor, single point]"}
{"smiles": "OCCC1CN(CCCn2cccn2)CCN1Cc1ccccc1", "note": "(stereo unspecified)", "Potency": "inconclusive: 6.57 µM [inhibitor, partial curve]"}
{"smiles": "COc1ccc(S(=O)(=O)c2c(C)c(NS(=O)(=O)c3ccccc3)cc(C)c2O)cc1", "Potency": "inconclusive: 10.4 µM [inhibitor, partial curve, poor fit]"}
{"smiles": "CCOC(=O)c1c(C)n(C)c2ccc(OC)c(NS(=O)(=O)c3ccc(Cl)s3)c12", "Potency": "inconclusive: 4.65 µM [inhibitor, partial curve, poor fit]"}
{"smiles": "OCCNc1nc(C2CC2)nc2c1nnn2Cc1ccccc1Cl", "Potency": "inconclusive: 11.7 µM [inhibitor, partial curve, poor fit]"}
{"smiles": "O=C(COC(=O)c1ccc([N+](=O)[O-])o1)Nc1cccc(S(=O)(=O)N2CCOCC2)c1", "Potency": "inconclusive: 9.28 µM [inhibitor, partial curve, poor fit]"}
{"smiles": "Cn1c(=O)c2c(nc(CN3CCN(Cc4ccccc4)CC3)n2Cc2ccc(Cl)cc2)n(C)c1=O", "Potency": "active: 2.62 µM"}
{"smiles": "Cc1ccc(-n2c(CSc3nc(C)cc(C)n3)nnc2SCC(=O)N2CCCC2)cc1", "Potency": "inconclusive: 7.38 µM [inhibitor, partial curve, poor fit]"}
{"smiles": "O=C(NCc1ccccc1CN1CCCC1)C1CCN(S(=O)(=O)c2ccc(Cl)cc2)CC1", "Potency": "inconclusive: 11.7 µM [inhibitor, partial curve, poor fit]"}
{"smiles": "O=C(NC1(C(F)(F)F)Oc2ccc(Cl)cc2O1)N1CCC2(CC1)OCCO2", "note": "(stereo unspecified)", "Potency": "active: 1.85 µM"}
{"smiles": "O=C(O)c1ccccc1-c1ccccc1C(=O)Nc1cccc2ccccc12", "Potency": "inconclusive: 13.1 µM [inhibitor, partial curve]"}
{"smiles": "CCCOc1ccc(CSCCNC(=S)Nc2ccccc2)cc1", "Potency": "inconclusive: 14.7 µM [inhibitor, partial curve, poor fit]"}
{"smiles": "CC(=O)Nc1ccc(NS(=O)(=O)c2ccc3c(c2)NC(=O)CC(=O)N3)cc1", "Potency": "inconclusive: 18.5 µM [inhibitor, single point]"}
{"smiles": "Cc1ccc2nc3sc(C(=O)NCc4ccco4)c(N)c3cc2c1", "activity change, negative = inhibition": "inactive: 219%"}
{"smiles": "O=C(c1nc2ccccn2c1CNCCn1ccc2ccccc21)N1CCOCC1", "Potency": "inconclusive: 16.5 µM [inhibitor, partial curve, poor fit]"}
{"smiles": "O=c1c2[nH]c3ccccc3c2nc2n1CCCS2", "Potency": "inconclusive: 6.57 µM [inhibitor, partial curve]"}
{"smiles": "CCN(CC(=O)NCc1cccs1)C(=O)c1ccc(S(=O)(=O)Nc2ccccc2Cl)cc1", "activity change, negative = inhibition": "inactive: -19.4%"}
{"smiles": "Cc1ccc(CSCC(=O)Nc2ccc(N3CCOCC3)cc2N2CCOCC2)cc1", "Potency": "inconclusive: 5.86 µM [inhibitor, partial curve, poor fit]"}
{"smiles": "CC(C)CNS(=O)(=O)c1ccc(CCC(=O)NCCc2ccccc2)cc1", "Potency": "inconclusive: 11.7 µM [inhibitor, single point]"}
{"smiles": "COC(=O)C1=CN(c2cc(C)cc(C)c2)C=C(C(=O)OC)C1c1cccc(F)c1", "Potency": "inconclusive: 18.5 µM [inhibitor, single point]"}
{"smiles": "CCOC(=O)CN(C)S(=O)(=O)c1ccc(-c2cc(C(=O)OC)sc2C(F)(F)F)cc1", "activity change, negative = inhibition": "inactive: 9.24%"}
{"smiles": "CC1(C)CCC(=O)C=C1Nc1ccc(F)c(Cl)c1", "Potency": "inconclusive: 18.5 µM [inhibitor, partial curve, poor fit]"}
{"smiles": "CC(Oc1ccc(Cl)cc1Cl)C(=O)NNC(=O)C(=O)N1CCCCC1", "note": "(stereo unspecified)", "Potency": "inconclusive: 0.0657 µM [inhibitor, full curve, poor fit]"}
